The results in this text go back to publication PMC11550886.

Sequences of proteins named here, by UniProt entry; tags and fusion partners are left off. A change or cut given only in a name is not applied to a line headed by its entry. Residues count along the entry.
UniProt P29400, residues 1461-1685: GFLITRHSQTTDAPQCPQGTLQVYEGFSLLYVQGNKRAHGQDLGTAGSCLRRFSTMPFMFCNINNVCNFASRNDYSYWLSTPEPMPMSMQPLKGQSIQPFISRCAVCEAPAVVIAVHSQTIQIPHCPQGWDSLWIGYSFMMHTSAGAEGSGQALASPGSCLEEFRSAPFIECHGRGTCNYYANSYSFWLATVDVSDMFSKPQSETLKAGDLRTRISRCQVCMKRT
UniProt P56199: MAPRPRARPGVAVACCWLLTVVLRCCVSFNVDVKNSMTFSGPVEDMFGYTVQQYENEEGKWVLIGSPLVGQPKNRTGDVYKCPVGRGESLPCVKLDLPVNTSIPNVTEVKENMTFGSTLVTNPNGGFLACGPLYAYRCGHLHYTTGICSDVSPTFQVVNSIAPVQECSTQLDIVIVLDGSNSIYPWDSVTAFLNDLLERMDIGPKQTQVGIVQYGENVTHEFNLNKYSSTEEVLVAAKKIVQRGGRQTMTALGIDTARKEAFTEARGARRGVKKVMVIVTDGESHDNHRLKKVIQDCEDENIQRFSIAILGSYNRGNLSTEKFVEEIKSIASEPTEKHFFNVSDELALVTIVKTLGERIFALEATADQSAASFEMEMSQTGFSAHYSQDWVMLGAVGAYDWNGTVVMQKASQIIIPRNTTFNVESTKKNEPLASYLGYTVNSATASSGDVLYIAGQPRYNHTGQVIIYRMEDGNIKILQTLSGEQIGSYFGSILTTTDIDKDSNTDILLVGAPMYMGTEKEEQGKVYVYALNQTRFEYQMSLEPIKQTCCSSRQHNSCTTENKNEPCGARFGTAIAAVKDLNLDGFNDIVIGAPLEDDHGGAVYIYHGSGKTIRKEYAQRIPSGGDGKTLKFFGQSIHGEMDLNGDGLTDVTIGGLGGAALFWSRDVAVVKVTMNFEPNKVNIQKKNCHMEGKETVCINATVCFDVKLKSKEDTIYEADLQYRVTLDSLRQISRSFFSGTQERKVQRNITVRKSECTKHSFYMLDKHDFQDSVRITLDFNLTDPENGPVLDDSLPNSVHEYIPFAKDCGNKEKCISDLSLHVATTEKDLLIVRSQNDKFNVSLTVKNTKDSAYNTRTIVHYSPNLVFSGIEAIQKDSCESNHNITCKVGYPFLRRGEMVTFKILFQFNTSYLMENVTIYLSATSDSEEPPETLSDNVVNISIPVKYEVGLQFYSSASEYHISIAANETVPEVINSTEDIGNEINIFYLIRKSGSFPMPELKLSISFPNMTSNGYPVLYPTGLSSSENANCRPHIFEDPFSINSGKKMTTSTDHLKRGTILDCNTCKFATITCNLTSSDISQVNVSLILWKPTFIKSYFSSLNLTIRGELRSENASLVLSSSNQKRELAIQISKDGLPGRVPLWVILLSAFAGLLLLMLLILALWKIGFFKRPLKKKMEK
UniProt P05556: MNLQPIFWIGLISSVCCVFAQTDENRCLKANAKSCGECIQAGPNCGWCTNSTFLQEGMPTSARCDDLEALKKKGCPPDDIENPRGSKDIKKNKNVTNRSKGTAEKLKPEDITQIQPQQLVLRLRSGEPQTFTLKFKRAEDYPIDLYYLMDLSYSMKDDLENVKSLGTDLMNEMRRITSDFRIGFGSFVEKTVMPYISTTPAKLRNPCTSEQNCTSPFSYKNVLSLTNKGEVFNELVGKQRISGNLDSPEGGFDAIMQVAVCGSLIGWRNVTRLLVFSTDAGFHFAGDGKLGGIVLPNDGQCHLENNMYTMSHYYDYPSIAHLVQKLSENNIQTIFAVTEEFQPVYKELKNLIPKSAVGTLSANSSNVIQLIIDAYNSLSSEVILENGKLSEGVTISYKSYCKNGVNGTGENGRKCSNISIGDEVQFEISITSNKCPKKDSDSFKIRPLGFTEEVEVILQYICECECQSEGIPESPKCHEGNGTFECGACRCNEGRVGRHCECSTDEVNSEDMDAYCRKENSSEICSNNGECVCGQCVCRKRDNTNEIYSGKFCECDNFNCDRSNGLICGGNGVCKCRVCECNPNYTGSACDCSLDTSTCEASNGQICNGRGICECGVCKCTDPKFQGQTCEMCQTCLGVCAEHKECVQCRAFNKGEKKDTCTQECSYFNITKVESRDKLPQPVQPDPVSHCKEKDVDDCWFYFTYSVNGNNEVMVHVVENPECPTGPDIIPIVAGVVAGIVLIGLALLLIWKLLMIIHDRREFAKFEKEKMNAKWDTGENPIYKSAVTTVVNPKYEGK

No constants are given. Whether binding was seen depends on the method and setting. For some of these results: In cells and extracts the contact can be indirect. Some results given as binding are weak or reduced against the parent protein; the word gives no strength.

The target in test [1] is random peptide control. The test is described as follows: condition: α1β1-integrin 1 µg/mL; peptide coated at 10 µg/mL; ELISA; solid-phase binding assay: plate coated with 10 µg/mL NC1, pentastatin, random peptide or BSA in 50 mM NaHCO3 pH 9.6, 4°C overnight; α1β1-integrin 1 µg/mL in TBS with 1% BSA, 1 mM MgCl2, 2 mM CaCl2, RT 3 h; detected with biotinylated anti-β1-integrin antibody and streptavidin-peroxidase; normalised to BSA-coated wells; both purified. (In general: An ELISA detects its analyte on a solid surface through an enzyme-linked reagent.)

Test [2] deals with T1, pentastatin (human).
T1 sequence (peptide): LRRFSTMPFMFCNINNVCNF
The test is described as follows: ELISA; solid-phase binding assay: plate coated with 10 µg/mL NC1, pentastatin, random peptide or BSA in 50 mM NaHCO3 pH 9.6, 4°C overnight; α1β1-integrin 1 µg/mL in TBS with 1% BSA, 1 mM MgCl2, 2 mM CaCl2, RT 3 h; detected with biotinylated anti-β1-integrin antibody and streptavidin-peroxidase; normalised to BSA-coated wells; both purified.

The target in test [3] is recombinant C-terminal NC1 fragment (Gly1461 ~ Thr1685) of the collagen IVα5 polypeptide (human) (UniProt P29400). Described as above.
Test [4] shares this target. In words: co-IP; confluent adherent hPAECs exposed to recombinant NC1 for 10 min, cross-linked with 1% PFA, quenched with 100 mM glycine; precleared lysates incubated with 10 µg/mL monoclonal C-terminal collagen IVα5 antibody, captured on Protein G Sepharose; blotted with anti-β1-integrin antibody (clone MB1.2); only the target purified.

Turning to “α1β1-integrin (from UniProt P56199 29-1141; P05556 21-728) (complex)”, the binding result in test [1] is “no binding”; in test [2], “binds”; in test [3], “binds”.

As for “β1-integrin subunit, endogenous on human pulmonary arterial endothelial cells (hPAECs) (from UniProt P05556 21-798) (receptor)”, the binding entry in test [4] is on record as “binds”.
